Results from article PMC8063330 (Oncology Letters, 2021).

Assays:
Assay type in all cases: cell-based
[1] = system: gastric cancer cell lines; assay: cytotoxic assay with various gastric cancer cell lines
MKN-45 cells = assay: cytotoxic assay in MKN-45
SNU-638 cells = assay: cytotoxic assay in SNU-638

## CCNC(=O)C[C@@H]1N=C(c2ccc(Cl)cc2)c2cc(OC)ccc2-n2c(C)nnc21 [I-BET-762]
[1]; MKN45, SH-10-TC, SNU668, MKN7 and SNU216
  cell growth inhibition in I-BET-762-resistant cell lines: resistant
[1]; various gastric cancer cell lines, 72 h, WST-1
  cytotoxic effect on gastric cancer cell lines: exerts inhibition only on limited cell lines
MKN-45 cells
  cytotoxic effect: had no cytotoxic effect
SNU-638 cells
  cytotoxic effect: had cytotoxic effect
